In patent US20040121009A1, “Method of modifying the release profile of sustained release compositions” (Alkermes Controlled Therapeutics, Inc., priority 2002, published 2004):
Some of these results come from one statement about several compounds together.

Experiment: Example 1: hematocrit testing
Assay type: in vivo, rat
Details: day 36; EPO microparticles alone (Group A) or with 5 mg secondary agent (Groups B, D)
Procedure: Animals were anesthetized with 5% halothane. […] The microparticles were prepared as described above. […] Hematocrits were evaluated manually following centrifugation for 5 minutes at 8000 rpm (on four animals per group) using a capillary tube.

## CC(=O)OCC(=O)[C@@]1(O)CC[C@H]2[C@@H]3CCC4=CC(=O)CC[C@]4(C)[C@H]3[C@@H](O)C[C@@]21C [hydrocortisone acetate]
  hematocrit values: ≥ 70%

## CC(=O)OCC(=O)[C@@]1(O)[C@H](OC(C)=O)C[C@H]2[C@@H]3CCC4=CC(=O)C=C[C@]4(C)[C@@]3(F)[C@@H](O)C[C@@]21C [triamcinolone diacetate]
  hematocrit values: ≥ 70%
